Inconclusive results, whose numbers are uncertain, are shown with a selection of clear calls. Potencies beside an inconclusive call are fits to weak or partial responses and may not hold up. The source made the active and inactive calls. Calls come from the whole dose curve; as a rule, active = well fitted inhibition curve with a large enough effect; inconclusive = small, poorly fitted or top-dose-only effect, or another doubt; inactive = no such curve, though single readings can be large or run the other way.
Target: 4'-phosphopantetheinyl transferase ffp (Bacillus subtilis) (UniProt Q9F4F7)
Assay: Confirmation qHTS Assay for Inhibitors of Bacillus subtilis Sfp phosphopantetheinyl transferase (PPTase)
Conditions: Sfp PPTase enzymatic assay, qHTS titration; series mostly up to 114 µM
From the text: The covalent attachment of a phosphopantetheinyl (4'-PP) arm to a variety of synthases and other proteins is a key posttranslational protein modification. The 4'-PP is installed on the proteins post-translationally from coenzyme A (CoA) on a conserved serine residue by action of phosphopantetheinyl transferase (PPTase) enzymes. Phosphopantetheinylation is essential for synthase activity, and removal of the PPTase gene precludes natural product synthesis in microorganisms, or in the case of fatty acid biosynthesis, renders the organism unviable. PPTase enzymes belong to a distinct structural superfamily. Within bacteria, these enzymes are grouped into two classes based upon primary structure, the AcpS-Type and Sfp-Type PPTases.
Sfp-type PPTases, corresponding to an activator of surfactin production in Bacillus subtilis, are responsible for modifying type I polyketide and nonribosomal peptide synthases of prokaryotes. Sfp-type PPTases are responsible for the activation of a variety of pathogen-associated virulence factors. Among these compounds are toxins such as mycolactone from Mycobacterium ulcerans, siderophores such as vibriobactin from Vibrio cholerae or mycobactin from Mycobacterium tuberculosis, as well as the mycolic acids which form the waxy cell wall of Mycobacteria. The biosyntheses of these natural products are considered attractive targets for drug design.
In search of small molecule Sfp-PPTase inhibitors, a fluorescence quenching assay was developed for detection of Bacillus subtilis Sfp-PPTase enzymatic activity in a miniaturized high-throughput format. The consensus ybbr acceptor peptide […] was N-terminally labeled with Black Hole Quencher-2 (BHQ-2) and used in combination with rhodamine-labeled coenzyme A as a co-substrate.
Inhibition of Sfp-PPTase was detected by recording the fluorescence intensity change over a 30-minute reaction period at a 525 nm excitation and 598 nm emission. Reagents were supplied by Michael Burkart and Timothy Foley, University of California at San Diego.
Assay Submitter: Michael Burkart, University of California, San Diego
Screening Center PI: Austin, C.P.
Screening Center: NIH Chemical Genomics Center [NCGC]
Assay Buffer: 50 mM Hepes-Na pH 7.6, 10 mM MgCl2, 0.01% Nonidet P-40, and 0.01% BSA.
3 uL of Sfp-PPTase enzyme (final concentration 15 nM) and 1 uL of substrate mixture (final concentration for rhodamine-CoA and BHQ-2-YbbR 5 uM and 12.5 uM, respectively) dispensed in columns 1, 2, 5 - 48. Columns 1 and 2 used to generate neutral control (uninhibited reaction)
Three uL of reagents, consisting of buffer (in columns 3 and 4 as negative control) and Sfp-PPTase (in columns 1, 2, 5 - 48) were dispensed into 1,536-well Greiner black solid bottom plate. Compounds (23 nL) were transferred via Kalypsys pintool equipped with 1,536-pin array. The plate was incubated for 15 min at room temperature, followed by the addition of 1 uL substrate to start the reaction. The plate was then centrifuged at 1000 rpm for 15 seconds, and the fluorescence intensity recorded on a ViewLux High-throughput CCD imager (Perkin-Elmer) using standard BODIPY optics (525 nm excitation and 598 nm emission). The plate was then incubated for 30 minutes, and a second read on the ViewLux was performed. The fluorescence intensity difference over the 30-minute period was used to calculate the respective reaction rate for each well.
Potency is the fitted concentration of half-maximal effect.

Amino acid sequences for entries named in this document (tags omitted).
UniProt Q9F4F7, whole entry, looked up: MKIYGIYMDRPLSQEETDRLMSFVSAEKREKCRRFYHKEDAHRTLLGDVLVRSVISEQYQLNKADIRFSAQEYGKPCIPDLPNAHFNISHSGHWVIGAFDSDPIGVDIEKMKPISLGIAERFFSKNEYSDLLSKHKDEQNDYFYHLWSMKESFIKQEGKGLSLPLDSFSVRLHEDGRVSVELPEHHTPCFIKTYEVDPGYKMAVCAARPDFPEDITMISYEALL

Potency, inactive:
CC(C)(C)NC(=O)C(c1cccnc1)N(C(=O)c1ccc(Cl)nc1)C1CCCC1 (stereo unspecified)
c1cn2cc(CSC3CCCCC3)nc2s1
Cc1cccc(N2CCC(N3CCN(C4CCCCC4)C(CCO)C3)CC2)c1C (stereo unspecified)
O=C(CSc1n[nH]c(-c2ccccc2O)n1)N1CCOCC1
Cc1ccccc1-n1nc(-c2ccc(N)cc2)cc1N
CC/C(O)=C(/C#N)c1nnc2n1CCCCC2
CC1=C(C(=O)O)N2C(=O)[C@@H](NC(=O)[C@@H](N)c3ccc(O)cc3)[C@@H]2SC1
Cc1ccc(-c2cnc(-c3ccncc3)o2)cc1
CCOC(=O)NNc1nncc2ccccc12

An excerpt from above in order of formula weight, low to high.
Potency, inactive:
CC/C(O)=C(/C#N)c1nnc2n1CCCCC2
O=C(CSc1n[nH]c(-c2ccccc2O)n1)N1CCOCC1
CC1=C(C(=O)O)N2C(=O)[C@@H](NC(=O)[C@@H](N)c3ccc(O)cc3)[C@@H]2SC1
Cc1cccc(N2CCC(N3CCN(C4CCCCC4)C(CCO)C3)CC2)c1C (stereo unspecified)

Looked up by structure from above:
Potency, inactive:
CC1=C(C(=O)O)N2C(=O)[C@@H](NC(=O)[C@@H](N)c3ccc(O)cc3)[C@@H]2SC1
Cc1ccccc1-n1nc(-c2ccc(N)cc2)cc1N

Following part.

Potency, inconclusive:
CC(C)(C)C(=O)OCOP(=O)(COCCn1cnc2c(N)ncnc21)OCOC(=O)C(C)(C)C 46.9 µM [inhibitor, partial curve, poor fit]
CNC[C@H](O)c1ccc(O)c(O)c1 46.9 µM [inhibitor, partial curve, poor fit]
CCC1=C[C@@H]2CN(C1)Cc1c([nH]c3ccccc13)[C@@](C(=O)OC)(c1cc3c(cc1OC)N(C)[C@H]1[C@@](O)(C(=O)OC)[C@H](OC(C)=O)[C@]4(CC)C=CCN5CC[C@]31[C@@H]54)C2 52.7 µM [inhibitor, single point]
COC(=O)c1[nH]c2ccccc2c1NC(=O)Oc1ccccc1 11.8 µM [inhibitor, full curve]
O=C(O)Cn1ncc2c1-c1ccoc1CC2 66.3 µM [inhibitor, single point]
CCOc1cc(CNc2ccc(N(C)C)cc2)cc(Br)c1OCC(=O)NC(C)(C)C 37.3 µM [inhibitor, partial curve]
CCOc1ccc2nc(SCC(=O)c3ccc(C)s3)sc2c1 52.7 µM [inhibitor, single point]
CCCC(=O)Nc1ccc(-c2csc(NNC(C)=O)n2)cc1 52.7 µM [inhibitor, partial curve, poor fit]
O=C(NCCCn1ccnc1)c1nn2c(C(F)(F)F)cc(-c3ccc(Br)cc3)nc2c1Cl 46.9 µM [inhibitor, partial curve, poor fit]
CCN(CC)c1ccc(NC(=O)COC(=O)CSc2ccc(Br)cc2C)cc1 59.1 µM [inhibitor, partial curve, poor fit]
CCN(CC)CCOCCOC(=O)C1(c2ccccc2)CCCC1 83.5 µM [inhibitor, single point]
C[C@@H]1CN=C2N(CCNC(=O)CCC3CCCCC3)[C@H](Cc3ccc(O)cc3)CN21 29.6 µM [inhibitor, single point]
Nc1cccn2c(-c3ccc(Cl)cc3)cnc12 29.6 µM [inhibitor, full curve, poor fit]
CCc1c(C)nc2cc(-c3ccc(OC)c(OC)c3)nn2c1N1CCCC1 66.3 µM [inhibitor, single point]
CN(C)CCCSc1nc2ccccc2s1 11.8 µM [inhibitor, full curve, poor fit]
Cc1ccn2c(Nc3ccc4c(c3)OCO4)c(-c3ccccn3)nc2c1 41.8 µM [inhibitor, partial curve]
O=C(O)Cc1ccc(NC(=O)Nc2ccc(Br)cc2)cc1 66.3 µM [inhibitor, partial curve]
CN(C)CCCN1c2ccccc2CCc2ccc(Cl)cc21 83.5 µM [inhibitor, single point]
Cc1ccc2c(c1)CCCN2C(=O)Nc1ccc2c(c1)OCO2 46.9 µM [inhibitor, partial curve, poor fit]

Potency, active:
Cc1ccc(NC(=O)c2c(NC(=O)CCC(=O)O)sc3c2CCCCC3)cc1 14.8 µM
Clc1cc(Cl)c2nc(N3CCCCC3)sc2c1 46.9 µM
CCCCN(CCCC)CC(O)c1cc(Cl)cc2c1-c1ccc(Cl)cc1/C2=C/c1ccc(Cl)cc1 (stereo unspecified) 41.8 µM
CCOc1ccccc1CNc1ccc(O)cc1 10.5 µM
NC(=O)N1c2ccccc2CC(=O)c2ccccc21 46.9 µM
COc1ccccc1CNC(=O)Nc1cccs1 23.5 µM
CO/N=C(\C(=O)N[C@@H]1C(=O)N2C(C(=O)[O-])=C(C[n+]3cccc4c3CCC4)CS[C@H]12)c1csc(N)n1 41.8 µM
CCOC(=O)c1c(N)sc2c1CCN(Cc1ccccc1)C2 21 µM
